# Measured values published in the supplement of paper PMC11438910.
# The list shows a part of the results. Only a few entries rise above the background.
# What was measured:
# Assay in all cases: fluorescence intensity of antibody binding to polysaccharide-coupled beads; higher = stronger binding
# [1] = target: pneumococcal polysaccharide C-Poly-1
# [2] = target: pneumococcal polysaccharide C-Poly-2
# [3] = target: pneumococcal polysaccharide Pn1
# [4] = target: pneumococcal polysaccharide Pn10A
# [5] = target: pneumococcal polysaccharide Pn10B
# [6] = target: pneumococcal polysaccharide Pn10C
# [7] = target: pneumococcal polysaccharide Pn10F
# [8] = target: pneumococcal polysaccharide Pn11A
# [9] = target: pneumococcal polysaccharide Pn11B
# [10] = target: pneumococcal polysaccharide Pn11C
# [11] = target: pneumococcal polysaccharide Pn11D
# [12] = target: pneumococcal polysaccharide Pn11F
# [13] = antibody concentration 0.1 ng/mL
# [14] = antibody concentration 0.534724 ng/mL
# [15] = antibody concentration 2.8593 ng/mL
# [16] = antibody concentration 15.2894 ng/mL
# [17] = antibody concentration 81.7561 ng/mL
# [18] = antibody concentration 437.17 ng/mL
# [19] = antibody concentration 2337.65 ng/mL
# [20] = antibody concentration 12500 ng/mL
binder,measurement,setting,value
4-80.3 (protein) chain 1: QVQLQESGPGLVKPSETLSLTCAVSGGSFSSYWWSWIRQPPGKGLEWIGEINGNSGSTNYNPSLKSRVTISKDASKNQFSLKLSSVTAADTAVYYCARYKNVWGRGVLVTVSS chain 2: DVVMTQSPLSLPITPGQPASISCRSSQSLVHSNGNTYLSWYQQKPGQPPRRLIYQVSNRDSGVPDRFSGSGAGTDFTLKISRVEAEDVGVYYCGQGTNVPTFGQGTKVEIK,fluorescence intensity,[1]; [13],23.5 MFI
same,fluorescence intensity,[1]; [14],28.8 MFI
same,fluorescence intensity,[1]; [15],26.5 MFI
same,fluorescence intensity,[1]; [16],28.5 MFI
same,fluorescence intensity,[1]; [17],28.2 MFI
same,fluorescence intensity,[1]; [18],46.8 MFI
same,fluorescence intensity,[1]; [19],176 MFI
same,fluorescence intensity,[1]; [20],1040 MFI
same,fluorescence intensity,[2]; [13],20.5 MFI
same,fluorescence intensity,[2]; [14],21.5 MFI
same,fluorescence intensity,[2]; [15],21.5 MFI
same,fluorescence intensity,[2]; [16],21 MFI
same,fluorescence intensity,[2]; [17],24.8 MFI
same,fluorescence intensity,[2]; [18],39.5 MFI
same,fluorescence intensity,[2]; [19],147 MFI
same,fluorescence intensity,[2]; [20],887 MFI
same,fluorescence intensity,[3]; [13],12.5 MFI
same,fluorescence intensity,[3]; [14],13.2 MFI
same,fluorescence intensity,[3]; [15],15.2 MFI
same,fluorescence intensity,[3]; [16],15.5 MFI
same,fluorescence intensity,[3]; [17],13.2 MFI
same,fluorescence intensity,[3]; [18],19.2 MFI
same,fluorescence intensity,[3]; [19],40.8 MFI
same,fluorescence intensity,[3]; [20],175 MFI
same,fluorescence intensity,[4]; [13],26.5 MFI
same,fluorescence intensity,[4]; [14],26.8 MFI
same,fluorescence intensity,[4]; [15],25.8 MFI
same,fluorescence intensity,[4]; [16],26.5 MFI
same,fluorescence intensity,[4]; [17],28 MFI
same,fluorescence intensity,[4]; [18],28.2 MFI
same,fluorescence intensity,[4]; [19],46.5 MFI
same,fluorescence intensity,[4]; [20],159 MFI
same,fluorescence intensity,[5]; [13],22.2 MFI
same,fluorescence intensity,[5]; [14],25.2 MFI
same,fluorescence intensity,[5]; [15],26 MFI
same,fluorescence intensity,[5]; [16],23.5 MFI
same,fluorescence intensity,[5]; [17],23.8 MFI
same,fluorescence intensity,[5]; [18],23.5 MFI
same,fluorescence intensity,[5]; [19],29.5 MFI
same,fluorescence intensity,[5]; [20],49.5 MFI
same,fluorescence intensity,[6]; [13],15 MFI
same,fluorescence intensity,[6]; [14],18 MFI
same,fluorescence intensity,[6]; [15],16.5 MFI
same,fluorescence intensity,[6]; [16],16.2 MFI
same,fluorescence intensity,[6]; [17],16 MFI
same,fluorescence intensity,[6]; [18],16 MFI
same,fluorescence intensity,[6]; [19],21.2 MFI
same,fluorescence intensity,[6]; [20],37.2 MFI
same,fluorescence intensity,[7]; [13],19 MFI
same,fluorescence intensity,[7]; [14],20.2 MFI
same,fluorescence intensity,[7]; [15],18.5 MFI
same,fluorescence intensity,[7]; [16],18 MFI
same,fluorescence intensity,[7]; [17],20.5 MFI
same,fluorescence intensity,[7]; [18],21 MFI
same,fluorescence intensity,[7]; [19],23.8 MFI
same,fluorescence intensity,[7]; [20],30.5 MFI
same,fluorescence intensity,[8]; [13],29.5 MFI
same,fluorescence intensity,[8]; [14],32 MFI
same,fluorescence intensity,[8]; [15],29.8 MFI
same,fluorescence intensity,[8]; [16],29 MFI
same,fluorescence intensity,[8]; [17],30.8 MFI
same,fluorescence intensity,[8]; [18],36.2 MFI
same,fluorescence intensity,[8]; [19],48 MFI
same,fluorescence intensity,[8]; [20],116 MFI
same,fluorescence intensity,[9]; [13],25 MFI
same,fluorescence intensity,[9]; [14],24 MFI
same,fluorescence intensity,[9]; [15],28.5 MFI
same,fluorescence intensity,[9]; [16],24.8 MFI
same,fluorescence intensity,[9]; [17],27.8 MFI
same,fluorescence intensity,[9]; [18],31.8 MFI
same,fluorescence intensity,[9]; [19],37 MFI
same,fluorescence intensity,[9]; [20],49.8 MFI
same,fluorescence intensity,[10]; [13],24 MFI
same,fluorescence intensity,[10]; [14],23.2 MFI
same,fluorescence intensity,[10]; [15],23 MFI
same,fluorescence intensity,[10]; [16],23 MFI
same,fluorescence intensity,[10]; [17],23.8 MFI
same,fluorescence intensity,[10]; [18],28.2 MFI
same,fluorescence intensity,[10]; [19],94.5 MFI
same,fluorescence intensity,[10]; [20],620 MFI
same,fluorescence intensity,[11]; [13],25.5 MFI
same,fluorescence intensity,[11]; [14],26.5 MFI
same,fluorescence intensity,[11]; [15],22.5 MFI
same,fluorescence intensity,[11]; [16],24 MFI
same,fluorescence intensity,[11]; [17],22.2 MFI
same,fluorescence intensity,[11]; [18],26 MFI
same,fluorescence intensity,[11]; [19],53 MFI
same,fluorescence intensity,[11]; [20],328 MFI
same,fluorescence intensity,[12]; [13],14.5 MFI
same,fluorescence intensity,[12]; [14],14 MFI

# Reformatted: results already given
binder	measurement	setting	value
4-80.3 (protein) chain 1: QVQLQESGPGLVKPSETLSLTCAVSGGSFSSYWWSWIRQPPGKGLEWIGEINGNSGSTNYNPSLKSRVTISKDASKNQFSLKLSSVTAADTAVYYCARYKNVWGRGVLVTVSS chain 2: DVVMTQSPLSLPITPGQPASISCRSSQSLVHSNGNTYLSWYQQKPGQPPRRLIYQVSNRDSGVPDRFSGSGAGTDFTLKISRVEAEDVGVYYCGQGTNVPTFGQGTKVEIK	fluorescence intensity	[4]; [17]	28 MFI
same	fluorescence intensity	[8]; [19]	48 MFI
same	fluorescence intensity	[9]; [16]	24.8 MFI
same	fluorescence intensity	[9]; [17]	27.8 MFI
same	fluorescence intensity	[12]; [14]	14 MFI
